Data as given in PubChem BioAssay AID652272 (Drosophila RNAi Screening Center, 2013)
The deposit covers about 21,000 reagents; this is an unselected part of those with a known target gene and a result. In the full data, 503 (2.4%) got an active call. 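Raw plate light values, not normalised; calls rest on replicate z-scores that were not deposited; hits include reporter decreases as well as increases.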 Not stated in the record: the amount of reagent, the time to read-out.

Screen: 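Genome-wide knock-down search for components of Hedgehog signalling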 (primary screen)
System: Drosophila clone 8 (Cl8) cells
Knock-down reagent: long dsRNA against Drosophila genes
Measurement: 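Plate reader light from a firefly reporter under a ptc promoter fragment that responds to Hedgehog, with Renilla light as transfection reference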
Direction: firefly Hh reporter signal: higher = more ptc reporter light; Renilla reference signal: higher = more Renilla control light
Hit rule: 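Called a hit if the two-replicate mean z-score lies below -2 or above +3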
Calls: active = hit: reporter lowered or raised; inactive = not a hit

| Target gene | amplicon | firefly Hh reporter signal, replicate 1 | firefly Hh reporter signal, replicate 2 | firefly Hh reporter signal, replicate 3 | Renilla reference signal, replicate 1 | Renilla reference signal, replicate 2 | outcome |
| --- | --- | --- | --- | --- | --- | --- | --- |
| Etf-QO (GeneID 36031) | DRSC06111 | 83770 | 37636 | – | 2224 | 2988 | inactive |
| hig (GeneID 35949) | DRSC07628 | 1.20e5 | 4.22e5 | 1.05e5 | 4859 | 26861 | inactive |
| CG14143 (GeneID 39256) | DRSC10146 | 53532 | 43290 | 67356 | 4752 | 4540 | inactive |
| CG13630 (GeneID 42943) | DRSC14631 | 93293 | 1.05e5 | – | 4160 | 4249 | inactive |
| CG8243 (GeneID 35890) | DRSC07122 | 1.53e5 | 94941 | – | 3625 | 8364 | inactive |
| CG15385 (GeneID 33396) | DRSC00399 | 1.04e5 | 82243 | – | 2912 | 1952 | inactive |
| CG5662 (GeneID 32450) | DRSC19957 | 3.52e5 | 59894 | – | 2481 | 2481 | inactive |
| Bruce (GeneID 41260) | DRSC16015 | 68167 | 1.36e5 | – | 2247 | 3852 | inactive |
| CG18870 (GeneID 59218) | DRSC04313 | 79216 | 60315 | – | 2288 | 5020 | inactive |
| CG30015 (GeneID 36147) | DRSC05241 | 1.76e5 | 2.45e5 | – | 4429 | 10609 | inactive |
| CG30015 (GeneID 36147) | DRSC07027 | 55828 | 38912 | – | 2564 | 1809 | inactive |
| CG30015 (GeneID 36147) | DRSC07028 | 77940 | 46434 | – | 1866 | 3792 | inactive |
| NimC4 (GeneID 34824) | DRSC01945 | 1.21e5 | 45888 | – | 3398 | 3876 | inactive |
| nahoda (GeneID 37641) | DRSC03954 | 1.47e5 | 2.45e5 | – | 3904 | 11713 | inactive |
| nahoda (GeneID 37641) | DRSC04126 | 1.35e5 | 78805 | – | 5578 | 2931 | inactive |
| CG10053 (GeneID 40871) | DRSC12502 | 1.44e5 | 1.09e5 | – | 4845 | 3514 | inactive |
| CG10911 (GeneID 37058) | DRSC06008 | 80860 | 86880 | – | 1938 | 6081 | inactive |
| Rrp6 (GeneID 41798) | DRSC16223 | 87751 | 58228 | – | 5409 | 3255 | active |
| Hex-C (GeneID 44008) | DRSC07079 | 66663 | 56247 | – | 1673 | 3952 | inactive |
| SKIP (GeneID 42601) | DRSC14713 | 8.91e5 | 1.66e5 | – | 43580 | 3140 | inactive |
| SKIP (GeneID 42601) | DRSC14714 | 6.48e5 | 1.59e5 | – | 32170 | 3030 | inactive |
| SKIP (GeneID 42601) | DRSC15864 | 4.86e5 | 1.58e5 | – | 23964 | 3226 | inactive |
| SKIP (GeneID 42601) | DRSC16195 | 1.65e5 | 7.89e5 | 1.12e5 | 6557 | 44124 | inactive |
| SKIP (GeneID 42601) | DRSC16196 | 8.86e5 | 8.93e5 | 1.77e5 | 39803 | 6049 | inactive |
| sxc (GeneID 35486) | DRSC04911 | 73460 | 87104 | – | 1748 | 6224 | inactive |
| CG5886 (GeneID 43125) | DRSC15908 | 78359 | 88273 | – | 1377 | 2201 | inactive |
| snky (GeneID 39492) | DRSC09838 | 44893 | 38292 | 51488 | 3691 | 3643 | inactive |
| CG12177 (GeneID 32326) | DRSC19437 | 1.51e5 | 4.68e5 | 3.83e5 | 4738 | 2840 | inactive |
| CG11865 (GeneID 34917) | DRSC01872 | 1.08e5 | 54281 | – | 2739 | 5264 | inactive |
| PH4alphaNE2 (GeneID 43628) | DRSC16544 | 58729 | 89168 | – | 2080 | 2273 | inactive |
| PQBP1 (GeneID 43004) | DRSC14393 | 89333 | 54487 | – | 3947 | 1139 | inactive |
| Ref1 (GeneID 44029) | DRSC12497 | 2.95e5 | 1.36e5 | 91051 | 25952 | 6087 | active |
| CG6769 (GeneID 32770) | DRSC20006 | 93440 | 86920 | – | 2240 | 2231 | inactive |
| CR30374 (GeneID 10178922) | DRSC05080 | 1.26e5 | 2.36e5 | – | 3584 | 12168 | inactive |
| shot (GeneID 36542) | DRSC05459 | 51568 | 1.06e5 | – | 4824 | 7316 | inactive |
| shot (GeneID 36542) | DRSC05460 | 83041 | 1.49e5 | – | 7152 | 7926 | inactive |
| shot (GeneID 36542) | DRSC07682 | 1.06e5 | 78197 | – | 4436 | 3337 | inactive |
| Pdp (GeneID 31683) | DRSC17825 | 88128 | 79031 | – | 2347 | 1952 | inactive |
| Spn43Aa (GeneID 45041) | DRSC06117 | 1.35e5 | 1.12e5 | – | 5164 | 4600 | inactive |

As entered above.
CG14143 (GeneID 39256) [DRSC10146], firefly Hh reporter signal, replicate 3: 67356
Result of CG12177 (GeneID 32326) [DRSC19437] under “Renilla reference signal, replicate 2”: 2840
